Measured values taken from US11351151B2, “Compound having anticancer activity and preparation method and application” (3D Medicines (Beijing) Co., Ltd., priority 2016, dated 2022).
Some entries share one result that the patent states for a list of compounds.

tested on: 54 commercial tumor cell lines; assay: Cell proliferation assay (Alamar Blue), summary over the panel; type: cell-based; conditions: in most tumor cells
Experimental: 1. Instruments and Materials • Thermo 311 CO2 incubator; Haier biosafety cabinet; Molecular Devices microplate reader; Xiangyi brand L530 desktop low speed centrifuge; Olympus IX51 inverted fluorescence microscope, DMEM, RPMI 1640, MEM, DMEM/F12 1:1 medium, Fetal bovine serum, 0.25% trypsin solution, phosphate buffer (Thermo Fisher Shanghai Co., Ltd.); sigma dimethyl sulfoxide (DMSO), resazurin; 54 commercial tumor cell lines (including 26 liver cancer cell lines). Experimental drugs: compounds 1-12 and active drug Linifanib; chemotherapeutic drug Doxorubicin (HY-15142; Shanghai Qianyuan Biomedical Technology Co., Ltd.).
2. Experimental Methods • 2.1 Cultivation of different cell lines • 54 cell lines were cultured in a culture medium containing fetal bovine serum and placed in a 5% CO 2 incubator at 37° C. for incubation. The cells were all grown in an adherent state, and the growth was observed under an inverted microscope, and subculture was performed when the cell confluence rate reached 80%-90%. The proportion and quantity of passage were determined by experimental needs. The ratio of subculture of this cell line was generally 1:2^˜1:3. • 2.2 inhibition effect on the proliferation of different tumor cell lines • Cell test: 54 cell lines in logarithmic growth phase were inoculated in 96-well culture plates at 500^˜1×10^4/well (the optimal seeding density of each cell line was determined in pre-experiment), After incubating at 37° C. for 4 h in a 5% CO2 humidification incubator, added 10 μL of compounds 1-12 or Linifanib to each well, and tested 9 drug concentration gradients for each compound (diluted from the highest concentration of the test by 3.16 times). The solubility of each compound was different at a starting concentration of 30 or 100 μM, respectively. The QC reference compound Doxorubicin was added simultaneously to each cell line test, and the final drug concentrations were 10, 3.16, 1, 0.31, 0.1, 0.03, 0.01, 0.003, and 0.001 μM, respectively. In addition, a positive control group (100% inhibition) and a negative control group (0% inhibition) were set at the same time. The drug group was repeated for 2 wells per concentration, and the positive control group and the negative control group were repeated for 6 wells. After the culture was continued for 6 days in the incubator, AlamarBlue test operation was followed; • AlamarBlue test procedure: Incubated with 10 μL of AlamarBlue reagent per well for 1-4 h, shook for 1-2 min, MD microplate reader EX: 560 nm, EM: 590 nm wavelength to measure fluorescence, recorded the results, calculated the cell inhibition rate of the compound of the invention. […]

SMILES	difference in IC50 values between compound and Linifanib
Cc1ccc(F)c(NC(=O)Nc2ccc(-c3cccc4c3c(N)nn4C(=O)CCCCCNC(=O)C[C@H](N)C(=O)N[C@@H](CCC(=O)N[C@@H](CCC(=O)N[C@@H](CCC(=O)N[C@@H](CCC(=O)N[C@@H](CCC(=O)N[C@@H](CCC(=O)N[C@@H](CCC(=O)N[C@@H](CCC(=O)N[C@@H](CCC(=O)O)C(=O)O)C(=O)O)C(=O)O)C(=O)O)C(=O)O)C(=O)O)C(=O)O)C(=O)O)C(=O)O)cc2)c1 [Compound 6]	more than 5 times
Cc1ccc(F)c(NC(=O)Nc2ccc(-c3cccc4c3c(N)nn4C(=O)CCCCCCCCCCCNC(=O)C[C@H](N)C(=O)N[C@@H](CCC(=O)N[C@@H](CCC(=O)N[C@@H](CCC(=O)N[C@@H](CCC(=O)N[C@@H](CCC(=O)N[C@@H](CCC(=O)N[C@@H](CCC(=O)N[C@@H](CCC(=O)N[C@@H](CCC(=O)O)C(=O)O)C(=O)O)C(=O)O)C(=O)O)C(=O)O)C(=O)O)C(=O)O)C(=O)O)C(=O)O)cc2)c1 [Compound 9]	more than 5 times
Cc1ccc(F)c(NC(=O)Nc2ccc(-c3cccc4c3c(N)nn4C(=O)CCCCCNC(=O)C[C@H](N)C(=O)N[C@@H](CCC(=O)N[C@@H](CCC(=O)N[C@@H](CCC(=O)N[C@@H](CCC(=O)O)C(=O)O)C(=O)O)C(=O)O)C(=O)O)cc2)c1 [Compound 5]	more than 5 times
Cc1ccc(F)c(NC(=O)Nc2ccc(-c3cccc4c3c(N)nn4C(=O)CCCCCCCCCCCNC(=O)C[C@H](N)C(=O)N[C@@H](CCC(=O)N[C@@H](CCC(=O)N[C@@H](CCC(=O)N[C@@H](CCC(=O)O)C(=O)O)C(=O)O)C(=O)O)C(=O)O)cc2)c1 [Compound 8]	more than 5 times
